Assay results published in patent US20070232520A1.
No constants are given. Whether binding was seen depends on the method and setting. For some assays here: A result given as binding can be weak or reduced; the word gives no strength. Blank lines part the entries; values can stand above or below the binder they belong to.

Sequences of proteins named here, by UniProt entry; tags and fusion partners are left off. A change or cut given only in a name is not applied to a line headed by its entry.
UniProt P20333: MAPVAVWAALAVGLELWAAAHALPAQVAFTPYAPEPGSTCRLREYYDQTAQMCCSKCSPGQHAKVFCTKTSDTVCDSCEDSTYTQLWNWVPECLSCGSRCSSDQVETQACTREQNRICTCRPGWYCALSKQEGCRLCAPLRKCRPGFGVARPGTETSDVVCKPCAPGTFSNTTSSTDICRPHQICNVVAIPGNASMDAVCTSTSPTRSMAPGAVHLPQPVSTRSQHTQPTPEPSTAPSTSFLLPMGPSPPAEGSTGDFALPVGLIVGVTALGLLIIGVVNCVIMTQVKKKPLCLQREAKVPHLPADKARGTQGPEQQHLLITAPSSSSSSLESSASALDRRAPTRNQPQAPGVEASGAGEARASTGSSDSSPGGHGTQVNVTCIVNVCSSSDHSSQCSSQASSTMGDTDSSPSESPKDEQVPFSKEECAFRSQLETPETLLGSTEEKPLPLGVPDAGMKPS

Experiments:
[1] = target: full-length intracellular domain of the p75-TNF-R (p75IC) (human) (UniProt P20333); experiment: yeast two-hybrid
[2] = target: full-length intracellular domain of the p75-TNF-R (p75IC) (human) (UniProt P20333); experiment: yeast two-hybrid (SFY526), various baits
[3] = target: full-length intracellular domain of the p75-TNF-R (p75IC) (human) (UniProt P20333); experiment: yeast two-hybrid (L40 screen, specificity in SFY526)
[4] = target: cyclin D; experiment: yeast two-hybrid (SFY526), various baits

binding [1]: binds
binding [2]: binds
binding [3]: binds
B1: protein encoded by the 230 clone (protein)
chain: GPIREAGLAGWLALGCSGPPAEAAGGAGEPWPQHSGKGQLAGRNAWVKKRKAPRENSPGVRSCRASGRASRPHGDPFLLTLPRARHPVTLNVTIQVSLKQRNVRFNTPFRRGEN

binding [1]: binds
binding [4]: no binding
binding [2]: binds
binding [3]: binds
B2: E3 (p75IC-binding protein encoded by clone E3) (protein)
chain: TFKIRMEPDETVKVLKEKIEAEKGRDAFPVAGQKLIYAGKILSDDVPIRDYRIDEKNFVVVMVTKTKAGQGTSAPPEASPTAAPESSTSFPPAPTSGMSHPPPAAREDKSPSEESTPTPEQEPCLZ

binding [1]: binds
binding [4]: no binding
binding [2]: binds
binding [3]: binds
B3: E19 (p75IC-binding protein encoded by clone E19) (protein)
chain: EAAGRERERTLEYAEAHAFKSPSKENKKKDKDMLEDKFKSNNLEREQEQLDRIVKESGGKLTRRLVNSQCEFERRKPDGTTTLGLLHPVDPIVGEPGYCPVRLGMTTGRLQSGVNTLQGFKEDKRNKVTPVLYLELWAPTVLYAPHYDSTFANYQQGLI
